{"source": "patent US20100150839A1", "about": "“Compositions and Methods for Modulating Cognitive Function” (Massachusetts Institute of Technology, priority 2005, published 2010)", "test_system": "cultured primary hippocampal neurons", "test": "Translation reporter assay: EGFP-αCaMKII 3′ UTR reporter mRNA transfected into neurons", "type": "cell-based, rat", "note": "For at least one compound, name, drawing or mass did not settle the structure.", "data": [{"smiles": "CN1CCc2cc3c(cc2[C@H]1[C@@H]1OC(=O)c2c1ccc1c2OCO1)OCO3", "note": "[bicuculline]", "values": [{"measurement": "Stimulation of EGFP-αCaMKII-A20 mRNA translation", "result": "significant increases"}]}]}
